The structures given here were assigned with low confidence; some may be wrong.
Columns and labels:
JH2 domain of human Tyk2 = JH2 domain of human Tyk2 (Homo sapiens, UniProt P29597); assay: JH2 biochemical assay (TR-FRET probe displacement); settings: read-out: TYK2-JH2 IC50
Procedure: The inhibitory potency of compounds of the disclosure against the kinase activity of recombinantly generated JH2 domain of human Tyk2 was evaluated in a plate-based assay using a TR-FRET assay platform. Briefly, 2 nM of recombinant JH2 domain [10×His-tagged TYK2 JH2 domain (amino acid 575-876)] was combined with 2 nM probe ((S)-6-amino-9-(2-carboxy-4-((1-(3-(8-methyl-5-(methylamino)-8H-imidazo[4,5-d]thiazolo[5,4-b]pyridin-2-yl)phenyl)ethyl)carbamoyl)phenyl)-3-iminio-5-sulfo-3H-xanthene-4-sulfonate), 0.1 nM Tb-labeled anti-His antibody, and compounds of disclosure for 60 minutes. Compounds are tested at either […] top concentration, 10 points of 3-fold dilution. The TR-FRET signal […] by compounds and signal was calculated by taking the ratio of fluorescence at 520 nm and 495 nm. The data was normalized and the percent activity versus log concentration of compound was fitted with a 4-parameter logistic model to generate IC50 curves.

Amino acid sequences for entries named in this document (tags omitted). Residues count along the entry.
UniProt P29597, 575-876 limits assumed: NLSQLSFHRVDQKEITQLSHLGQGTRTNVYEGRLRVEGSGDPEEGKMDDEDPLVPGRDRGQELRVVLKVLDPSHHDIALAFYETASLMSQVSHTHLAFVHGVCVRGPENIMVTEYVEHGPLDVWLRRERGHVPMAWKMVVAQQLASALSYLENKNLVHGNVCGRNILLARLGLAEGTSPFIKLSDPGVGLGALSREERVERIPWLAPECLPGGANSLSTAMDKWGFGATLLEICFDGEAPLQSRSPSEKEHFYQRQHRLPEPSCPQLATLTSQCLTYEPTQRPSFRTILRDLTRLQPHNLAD

[1] = test system: Tyk2 kinase activity on STAT4; assay: pSTAT4 cell assay (MSD, NK92 cells); settings: read-out: TYK2, compounds 1 hr, then stimulated 15 minutes
Procedure: The inhibitory potency of compounds of the disclosure against the Tyk2 kinase activity on STAT4 was evaluated using an MSD-platform plate-based assay format. NK92 cells natively expressing STAT4 and Tyk2 were serum-starved to reduce background phosphorylation levels, then cells were treated compounds for 1 hr with a 10-point four-fold dilution series starting at 10 μM. Cells were then stimulated with 30 ng/mL IL2 for 15 minutes. Cells were lysed and […] levels were quantitated using an MSD plate-based assay with anti-STAT4 antibodies. The data were normalized and the percent activity versus log concentration of compound were fitted with a 4-parameter logistic model to generate to generate IC50 curves.

SMILES: CC(=O)Nc1cc2c(cn1)C1(CC1)CN2c1cc(C)nc(N2C[C@H]3CN(C)C[C@H]3C2)n1
- IC50 (JH2 domain of human Tyk2): 100 to 1000 nM
- IC50 [1]: > 1000 nM
